Measurements published in the supplement of paper PMC7661543.
± gives the standard deviation of the averaged measurements. The effect of the compound repeats well; differences between the knockouts mostly do not.

Test system: SKBR3
Assay: relative cell number vs DMSO control (72 h) (% of DMSO); higher = less growth inhibition (more cells)
Experimental: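 QMAP-Seq: a pool of 5 breast cancer cell lines (ZR-75-1, SKBR3, HCC-38, MDA-MB-231, BT-20), each carrying 12 doxycycline-inducible Cas9 sgRNA perturbations (11 knockouts plus non-targeting sgNT), was treated with compounds for 72 h at four 10-fold doses (10 nM-10 uM or 1 nM-1 uM range). Barcodes were amplified and sequenced, and cell number was interpolated from 293T spike-in standard curves. The result is expressed as % of the median of DMSO wells. Two biological replicates.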

COc1cc2nccc(Oc3ccc(NC(=O)C4(C(=O)Nc5ccc(F)cc5)CC4)cc3)c2cc1OC [Cabozantinib]
Conditions	relative cell number
sgRNA knockout: sgATF3, 10 nM	129.2 ± 0.7
sgRNA knockout: sgATF3, 100 nM	96.3 ± 12
sgRNA knockout: sgATF3, 1000 nM	102 ± 44
sgRNA knockout: sgATF3, 10000 nM	55.1 ± 13
sgRNA knockout: sgATF4, 10 nM	101 ± 25
sgRNA knockout: sgATF4, 100 nM	104 ± 8.6
sgRNA knockout: sgATF4, 1000 nM	85 ± 1.5
sgRNA knockout: sgATF4, 10000 nM	55.6 ± 2.4
sgRNA knockout: sgATF6, 10 nM	99.4 ± 9.5
sgRNA knockout: sgATF6, 100 nM	83.6 ± 15
sgRNA knockout: sgATF6, 1000 nM	83.7 ± 13
sgRNA knockout: sgATF6, 10000 nM	57.5 ± 5.2
sgRNA knockout: sgATG7, 10 nM	119 ± 8.8
sgRNA knockout: sgATG7, 100 nM	102 ± 13
sgRNA knockout: sgATG7, 1000 nM	104 ± 22
sgRNA knockout: sgATG7, 10000 nM	47.5 ± 2.2
sgRNA knockout: sgERN1, 10 nM	128 ± 12
sgRNA knockout: sgERN1, 100 nM	107 ± 3.5
sgRNA knockout: sgERN1, 1000 nM	109 ± 6.7
sgRNA knockout: sgERN1, 10000 nM	55 ± 20
sgRNA knockout: sgHSF1, 10 nM	101 ± 10
sgRNA knockout: sgHSF1, 100 nM	76.5 ± 27
sgRNA knockout: sgHSF1, 1000 nM	73.397 ± 0.044
sgRNA knockout: sgHSF1, 10000 nM	51.7 ± 10
sgRNA knockout: sgHSF2, 10 nM	89.1 ± 8.8
sgRNA knockout: sgHSF2, 100 nM	88 ± 7.8
sgRNA knockout: sgHSF2, 1000 nM	82.4 ± 19
sgRNA knockout: sgHSF2, 10000 nM	59.4 ± 20
sgRNA knockout: sgKEAP1, 10 nM	98.7 ± 2.3
sgRNA knockout: sgKEAP1, 100 nM	103 ± 13
sgRNA knockout: sgKEAP1, 1000 nM	81.8 ± 8.6
sgRNA knockout: sgKEAP1, 10000 nM	51.1 ± 25
sgRNA knockout: sgNFE2L2, 10 nM	105 ± 14
sgRNA knockout: sgNFE2L2, 100 nM	86.6 ± 34
sgRNA knockout: sgNFE2L2, 1000 nM	93.3 ± 20
sgRNA knockout: sgNFE2L2, 10000 nM	63.9 ± 2.6
sgRNA knockout: sgSLC35F2, 10 nM	89.2 ± 7
sgRNA knockout: sgSLC35F2, 100 nM	79.2 ± 11
sgRNA knockout: sgSLC35F2, 1000 nM	94.8 ± 37
sgRNA knockout: sgSLC35F2, 10000 nM	57.7 ± 5.4
sgRNA knockout: sgXBP1, 10 nM	111 ± 17
sgRNA knockout: sgXBP1, 100 nM	113.4 ± 0.86
sgRNA knockout: sgXBP1, 1000 nM	80 ± 3.2
sgRNA knockout: sgXBP1, 10000 nM	44.8 ± 6.9

CC(C)C[C@H](NC(=O)[C@H](CCc1ccccc1)NC(=O)CN1CCOCC1)C(=O)N[C@@H](Cc1ccccc1)C(=O)N[C@@H](CC(C)C)C(=O)[C@@]1(C)CO1 [Carfilzomib]
Conditions	relative cell number
sgRNA knockout: sgATF3, 1 nM	79.6 ± 1.1
sgRNA knockout: sgATF3, 10 nM	33.2 ± 5
sgRNA knockout: sgATF3, 100 nM	20.5 ± 3.7
sgRNA knockout: sgATF3, 1000 nM	9.76 ± 6.2
sgRNA knockout: sgATF4, 1 nM	87.3 ± 13
sgRNA knockout: sgATF4, 10 nM	35.6 ± 13
sgRNA knockout: sgATF4, 100 nM	14.6 ± 3
sgRNA knockout: sgATF4, 1000 nM	7.09 ± 0.9
sgRNA knockout: sgATF6, 1 nM	83.3 ± 22
sgRNA knockout: sgATF6, 10 nM	27.4 ± 14
sgRNA knockout: sgATF6, 100 nM	12 ± 3.1
sgRNA knockout: sgATF6, 1000 nM	4.57 ± 2
sgRNA knockout: sgATG7, 1 nM	75.5 ± 4.2
sgRNA knockout: sgATG7, 10 nM	36.8 ± 12
sgRNA knockout: sgATG7, 100 nM	15.2 ± 0.31
sgRNA knockout: sgATG7, 1000 nM	8.26 ± 0.99
sgRNA knockout: sgERN1, 1 nM	80.6 ± 21
sgRNA knockout: sgERN1, 10 nM	27.2 ± 14
sgRNA knockout: sgERN1, 100 nM	14.7 ± 0.92
sgRNA knockout: sgERN1, 1000 nM	5.05 ± 2
sgRNA knockout: sgHSF1, 1 nM	83 ± 10
sgRNA knockout: sgHSF1, 10 nM	32.8 ± 15
sgRNA knockout: sgHSF1, 100 nM	13.2 ± 2
sgRNA knockout: sgHSF1, 1000 nM	9.52 ± 0.28
sgRNA knockout: sgHSF2, 1 nM	92.1 ± 20
sgRNA knockout: sgHSF2, 10 nM	36.3 ± 5.6
sgRNA knockout: sgHSF2, 100 nM	13.4 ± 3.9
sgRNA knockout: sgHSF2, 1000 nM	5.95 ± 2.2
sgRNA knockout: sgKEAP1, 1 nM	69.1 ± 9.6
sgRNA knockout: sgKEAP1, 10 nM	29.7 ± 1
sgRNA knockout: sgKEAP1, 100 nM	10.8 ± 2
sgRNA knockout: sgKEAP1, 1000 nM	6.1 ± 1.6
sgRNA knockout: sgNFE2L2, 1 nM	66.9 ± 14
sgRNA knockout: sgNFE2L2, 10 nM	32.3 ± 19
sgRNA knockout: sgNFE2L2, 100 nM	13.3 ± 6.5
sgRNA knockout: sgNFE2L2, 1000 nM	4.91 ± 0.14
sgRNA knockout: sgSLC35F2, 1 nM	79.1 ± 1.4
sgRNA knockout: sgSLC35F2, 10 nM	43.5 ± 29
sgRNA knockout: sgSLC35F2, 100 nM	13.9 ± 7.6
sgRNA knockout: sgSLC35F2, 1000 nM	4.33 ± 0.8
sgRNA knockout: sgXBP1, 1 nM	79.2 ± 7.3
sgRNA knockout: sgXBP1, 10 nM	29.4 ± 7.9
sgRNA knockout: sgXBP1, 100 nM	11.1 ± 6.1
sgRNA knockout: sgXBP1, 1000 nM	8.01 ± 1.6

N.N.[Cl][Pt][Cl] [Cisplatin]
Conditions	relative cell number
sgRNA knockout: sgATF3, 10 nM	109 ± 6.8
sgRNA knockout: sgATF3, 100 nM	92.2 ± 3.2
sgRNA knockout: sgATF3, 1000 nM	105 ± 14
sgRNA knockout: sgATF3, 10000 nM	114 ± 32
sgRNA knockout: sgATF4, 10 nM	97.2 ± 3.3
sgRNA knockout: sgATF4, 100 nM	82.8 ± 1.4
sgRNA knockout: sgATF4, 1000 nM	97.3 ± 12
sgRNA knockout: sgATF4, 10000 nM	93 ± 18
sgRNA knockout: sgATF6, 10 nM	83.11 ± 0.084
sgRNA knockout: sgATF6, 100 nM	89.5 ± 15
sgRNA knockout: sgATF6, 1000 nM	90.8 ± 6.7
sgRNA knockout: sgATF6, 10000 nM	91 ± 5.1
sgRNA knockout: sgATG7, 10 nM	102 ± 1.8
sgRNA knockout: sgATG7, 100 nM	112 ± 15
sgRNA knockout: sgATG7, 1000 nM	95.6 ± 29
sgRNA knockout: sgATG7, 10000 nM	117 ± 16
sgRNA knockout: sgERN1, 10 nM	98.9 ± 16
sgRNA knockout: sgERN1, 100 nM	97.6 ± 1.1
sgRNA knockout: sgERN1, 1000 nM	107 ± 16
sgRNA knockout: sgERN1, 10000 nM	104 ± 2.9
sgRNA knockout: sgHSF1, 10 nM	95.5 ± 21
sgRNA knockout: sgHSF1, 100 nM	96.6 ± 12
sgRNA knockout: sgHSF1, 1000 nM	93.6 ± 5.4
sgRNA knockout: sgHSF1, 10000 nM	92.6 ± 4.8
sgRNA knockout: sgHSF2, 10 nM	107 ± 16
sgRNA knockout: sgHSF2, 100 nM	76.4 ± 10
sgRNA knockout: sgHSF2, 1000 nM	97.8 ± 21
sgRNA knockout: sgHSF2, 10000 nM	110 ± 3.8
sgRNA knockout: sgKEAP1, 10 nM	109 ± 5.7
sgRNA knockout: sgKEAP1, 100 nM	76.6 ± 0.99
sgRNA knockout: sgKEAP1, 1000 nM	92 ± 5.5
sgRNA knockout: sgKEAP1, 10000 nM	87.4 ± 15
sgRNA knockout: sgNFE2L2, 10 nM	119 ± 18
sgRNA knockout: sgNFE2L2, 100 nM	69.3 ± 10
sgRNA knockout: sgNFE2L2, 1000 nM	112 ± 1.1
sgRNA knockout: sgNFE2L2, 10000 nM	98.1 ± 6.3
sgRNA knockout: sgSLC35F2, 10 nM	111 ± 5.8
sgRNA knockout: sgSLC35F2, 100 nM	85.4 ± 12
sgRNA knockout: sgSLC35F2, 1000 nM	123.83 ± 0.014
sgRNA knockout: sgSLC35F2, 10000 nM	110 ± 24
sgRNA knockout: sgXBP1, 10 nM	112 ± 8
sgRNA knockout: sgXBP1, 100 nM	94.8 ± 28
sgRNA knockout: sgXBP1, 1000 nM	123 ± 32
sgRNA knockout: sgXBP1, 10000 nM	104 ± 2.3
